Test results: patent US9644010B2 (ONCOTHERAPY SCIENCE, INC., priority 2012, dated 2017)
Plain letter strings leave the end groups untold.

Test: peptide made by a vendor
Conditions: whole synthesis

## RYCNLEGPPI
  purity (crude or final not stated): purity>95%
